According to paper PMC12300799:
Results are given in words; binding and its absence hold for the method and conditions named. Some results given as binding are weak or reduced against the parent protein; the word gives no strength.

Target: T1, ADGRL1 construct vL-Lm (latrophilin-1) on NB2a cells (UniProt O88917)
T1 sequence: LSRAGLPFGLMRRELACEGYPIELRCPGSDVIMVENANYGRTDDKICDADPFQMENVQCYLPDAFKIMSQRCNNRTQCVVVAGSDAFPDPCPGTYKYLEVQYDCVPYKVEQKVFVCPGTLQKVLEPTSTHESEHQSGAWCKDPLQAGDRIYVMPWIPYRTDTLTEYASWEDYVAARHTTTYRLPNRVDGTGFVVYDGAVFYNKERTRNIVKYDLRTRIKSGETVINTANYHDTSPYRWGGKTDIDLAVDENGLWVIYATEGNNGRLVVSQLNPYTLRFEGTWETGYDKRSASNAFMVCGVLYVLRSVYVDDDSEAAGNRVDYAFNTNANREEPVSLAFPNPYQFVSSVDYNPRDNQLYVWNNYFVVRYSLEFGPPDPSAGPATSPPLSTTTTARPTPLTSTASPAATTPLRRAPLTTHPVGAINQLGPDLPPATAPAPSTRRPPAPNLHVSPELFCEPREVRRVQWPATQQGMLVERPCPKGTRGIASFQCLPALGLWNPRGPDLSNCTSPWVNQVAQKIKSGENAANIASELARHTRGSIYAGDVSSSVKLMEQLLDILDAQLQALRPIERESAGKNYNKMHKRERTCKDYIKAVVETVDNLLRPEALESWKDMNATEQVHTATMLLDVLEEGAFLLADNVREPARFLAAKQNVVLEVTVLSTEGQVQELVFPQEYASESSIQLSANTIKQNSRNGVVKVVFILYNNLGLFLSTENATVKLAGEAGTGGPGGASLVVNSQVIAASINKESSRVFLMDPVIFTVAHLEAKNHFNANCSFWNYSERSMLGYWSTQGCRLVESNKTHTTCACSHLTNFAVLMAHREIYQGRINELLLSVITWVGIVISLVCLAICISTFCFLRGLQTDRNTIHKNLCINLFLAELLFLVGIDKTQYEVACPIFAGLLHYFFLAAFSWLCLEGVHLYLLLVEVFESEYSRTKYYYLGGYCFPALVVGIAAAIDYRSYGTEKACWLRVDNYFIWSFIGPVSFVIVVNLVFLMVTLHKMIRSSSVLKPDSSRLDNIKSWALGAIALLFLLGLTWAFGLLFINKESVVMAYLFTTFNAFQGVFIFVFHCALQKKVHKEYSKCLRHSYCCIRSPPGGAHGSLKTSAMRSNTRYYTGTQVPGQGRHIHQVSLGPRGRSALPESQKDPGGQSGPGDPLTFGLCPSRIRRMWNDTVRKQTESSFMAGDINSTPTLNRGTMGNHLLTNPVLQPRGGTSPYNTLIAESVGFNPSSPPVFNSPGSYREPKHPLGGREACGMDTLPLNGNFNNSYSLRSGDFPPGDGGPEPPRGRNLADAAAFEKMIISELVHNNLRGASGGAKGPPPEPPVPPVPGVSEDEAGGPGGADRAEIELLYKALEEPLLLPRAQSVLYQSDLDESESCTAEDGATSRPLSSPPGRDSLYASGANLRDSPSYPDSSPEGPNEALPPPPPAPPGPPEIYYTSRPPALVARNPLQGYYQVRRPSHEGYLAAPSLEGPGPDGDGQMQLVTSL
Assay: toxin binding to cells, centrifugation and immunoblot; only the binder purified

B1: α-Latrotoxin (ligand, UniProt P23631 21-1199)
chain: EGEDLTLEEKAEICSELELQQKYVDIASNIIGDLSSLPIAGKIAGTIAAAAMTATHVASGRLDIEQTLLGCSDLPFDQIKEVLENRFNEIDRKLDSHSAALEEITKLVEKSISVVEKTRKQMNKRFDEVMKSIQDAKVSPIISKINNFARYFDTEKERIRGLKLNDYILKLEEPNGILLHFKESRTPTDDSLQAPLFSIIEEGYAVPKSIDDELAFKVLYALLYGTQTYVSVMFFLLEQYSFLANHYYEKGYLEKYDEYFNSLNNVFLDFKSSLVGTGTSNNEGLLDRVLQVLMTVKNSEFLGLEKNGVDEMLNEKINLFNKIKEEIEGKQKMTLSETPENFAQISFDKDITTPIGDWRDGREVRYAVQYASETLFSKISHWSDPVSVREKACPTLRMPVDQTRRNVLVFRKFDSSKPQLVGEITPYLSNFIDIDRDLYNAASNPDSAVGFKEFTKLNYDGANIRATFDHGRTVFHAAAKSGNDKIMFGLTFLAKSTELNQPDKKGYTPIHVAADSGNAGIVNLLIQRGVSINSKTYHFLQTPLHLAAQRGFVTTFQRLMESPEININERDKDGFTPLHYAIRGGERILEAFLNQISIDVNAKSNTGLTPFHLAIIKNDWPVASTLLGSKKVDINAVDENNITALHYAAILGYLETTKQLINLKEINANVVSSPGLLSALHYAILYKHDDVASFLMRSSNVNVNLKALGGITPLHLAVIQGRKQILSLMFDIGVNIEQKTDEKYTPLHLAAMSKYPELIQILLDQGSNFEAKTNSGATPLHLATFKGKSQAALILLNNEVNWRDTDENGQMPIHGAAMTGLLDVAQAIISIDATVVDIEDKNSDTPLNLAAQNSHIDVIKYFIDQGADINTRNKKGLAPLLAFSKKGNLDMVKYLFDKNANVYIADNDGMNFFYYAVQNGHLNIVKYAMSEKDKFEWSNTDNNRRDECPNEECAISHFAVCDAVQFDRIEIVKYFVGTLGNFAICGPLHQAARYGHLDIVKYLVEEEFLSVDGSKTDTPLCYASENGHFTVVQYLVSNGAKVNHDCGNGMTAIDKAITKNHLQVVQFLAANGVDFRRKNSRGTTPFLTAVAENALHIAEYLIREKRQDININEQNVDKDTALHLAVYYKNLQMIKLLIKYGIDVTIRNAYDKTALDIAIDAKFSNIVEYLKTKSGKFRR
  binding: binds
